Assay results reported in patent EP0656952B1, “CATIONIC PEPTIDES AND METHOD FOR PRODUCTION” (THE UNIVERSITY OF BRITISH COLUMBIA, priority 1992, dated 1994).
Part of at least one peptide drawing is inferred or uncertain, most often the ends.

How the values were obtained:
[1] = test system: S. typhimurium defensin sensitive strain (C590); test: Minimum inhibitory concentration (MIC), broth dilution; format: cell-based; settings: MIC comparison with parent strain
Procedure: The minimum inhibitory concentrations of (MIC) of CEME, CEMA and melittin were determined for a number of different bacteria (Table 2). Briefly, cells were grown overnight at 37°C in LB-S (Luria broth without any salt supplement) and diluted one in 10,000 in the same medium to give concentrations of about 10^4 to 10^5 CFU/ml. The broth dilutions were set up in a 96 well microtiter plate by putting 200µl of LB-S containing the initial concentration of antibiotic or compound in column 1 and 100 µl of the same medium in columns 2-12. The compounds were diluted by taking 100 µl of broth from column 1 and mixing it with column 2, resulting in a one in two dilution. This was continued to column 10. Finally, 10 µl of bacteria were pipetted into columns 1-11, and the plates incubated overnight at 37°C. The next day the plates were scored for growth in the wells, and the MIC determined.

[2] = test system: a number of different bacteria; test: as above; format: cell-based; settings: for MIC values: comparison between compounds, LB-S, overnight at 37°C
P. aeruginosa LPS = test: Dansyl polymyxin (DPx) displacement assay with purified LPS; format: binding; settings: on a µM basis, compared with polymyxin B
Procedure: DPx is a derivative of polymyxin that fluoresces strongly when bound to LPS, but weakly when free in solution. In this assay, DPx was incubated with LPS to saturate the binding sites and then, while polycationic compounds are titrated into the reaction, displacement of the DPx was monitored by the decrease in fluorescence (FIGURE 9). P. aeruginosa LPS was isolated as previously described (Darveau, et al., J. of Bacteriology, 155:831, 1983) Dansyl polymyxin was synthesized as described by Schindler, et al., B. Antimicrobial Agents and Chemo, 8:95, 1975.
Briefly, 40 mgs of polymyxin B and 10 mgs of dansyl chloride were mixed in 2 mls of 60 mM NaHC03 and 40% acetone and incubated in the dark for 90 minutes. […] The dansyl polymyxin was resuspended in 5 mM Hepes pH 7.0, quantitated by dinitrophenylation and stored in aliquots at -20°C.
The method of Moore, et al., (Antimicrobial Agents end Chemo., 29:496, 1987), was used to test how much DPx was needed to saturate the binding sties on LPS. Briefly, 5 µl samples of 100 µM DPx were titrated sequentially into 1ml of 3 µg/ml of LPS until a maximum fluorescence was reached. The fluorescence was measured in a Perkin-Elmer 650-10S fluorescence spectrophotometer with an excitation wavelength of 340 nm and an emission wavelength of 485 nm using slit widths of 5 nm. […]

E. cloacae 218R1 = test: Lysozyme lysis assay (membrane permeabilization); format: cell-based; settings: 50 µg/ml lysozyme, FIGURE 6
P. aeruginosa [3] = test: 1-N-phenylnaphthylamine (NPN) uptake assay; format: cell-based; settings: 10 µM NPN, FIGURE 7
Excerpt: The second assay determined membrane permeability by the ability of 1-N-phenylnaphthylamine (NPN), a small fluorescent probe, to insert itself into the membrane. Normally, very little NPN can penetrate the outer membrane, but in the presence of a membrane permeabilizer it can insert into the hydrophobic membrane resulting in an increase in fluorescence (FIGURES 7 and 8). This N-phenylnaphthylamine uptake assay was previously described by Loh, et al., Antimicrobial Agents and Chemo., 26:546, 1984. Cells were prepared exactly the same as for the lysozyme lysis assay. 1-N-phenylnaphthylamine (NPN) was dissolved in acetone at a concentration of 500 µM. NPN fluorescence was measured in a Perkin-Elmer 650-10S fluorescent spectrophotometer using excitation and emission wavelengths set to 350 nm and 420 nm respectively, with slit widths of 5 nm. The assay was standardized by adding 20 µl of NPN (final concentration of 10 µM) and 10µl of 0.64 mg/ml of polymyxin B (final concentration of 6.4 µg/ml) into 1 ml of cells, and adjusting the resulting fluorescence to read 90% deflection (90 arbitrary units). […] Permeabilizing activity was designated as the total fluorescence minus the fluorescence due to NPN alone. Following the fluorescence measurement, the OD600 of the cells was taken to ensure no significant cell lysis had occurred.

P. aeruginosa H309 = test: Lysozyme lysis assay (membrane permeabilization); format: cell-based; settings: for permeabilizer for lysozyme: P. aeruginosa, 50 µg/ml lysozyme, FIGURE 5
Procedure: Membrane permeabilization by polycationic compounds was measured in two different assays. The first assay measured membrane disruption by the ability of lysozyme to reach the periplasm and cause cell lysis. […] The uptake of tysozyme into whole cells due to membrane permeabilization by various compounds was previously described in Hancock, et al., Antimicrobial Agents and Chemo., 19:777; 1981. Overnight cultures of P. aeruginosa H309 or E. cloacae 218R1 grown in LB-S were diluted 1 in 50 in fresh medium and grown to an OD600 ≈ 0.5-0.6. The cells were harvested in a Silencer H-103N clinical centrifuge at 1800 g for 10 min, washed once with one volume of assay buffer (5 mM HEPES pH 7.2, 5 mM KCN), and resuspended in the same buffer to an OD600 of 0.5. Assays consisted of 600 µl of cells with 50 µg/ml of chicken egg white lysozyme and varying concentrations of cationic compounds. Cell lysis was measured as a decrease in the OD600 in a Perkin-Emmer dual beam spectrophotometer. Parallel experiments performed without lysozyme enabled the measurement of the lytic activity of the compounds themselves. To test whether or not permeability to lysozyme could be inhibited by divalent cations, various concentrations of MgCl2 were added to the assay after the addition of lysozyme and before the addition of the test compound.

E. cloacae = test: 1-N-phenylnaphthylamine (NPN) uptake assay; format: cell-based; settings: 10 µM NPN, FIGURE 8
E. coli strain DC2 = test: Acid-urea gel overlay antibacterial activity test; format: cell-based; settings: acid-urea gel overlaid with agar containing ≈ 10^5 E. coli strain DC2, overnight at 37°C
Procedure: A sample of the partially purified CEME protein was electrophoresed on a 15% acid-urea gel, which separates proteins based on charge and mass (Panyim and Chalkey, Arch. Biochem. Biophys., 130:337, 1969). The pH of the buffer is acidic (≈ pH 5.0) and the polarity is reversed such that proteins migrate to the cathode. Therefore, the small cationic peptides run relatively quickly through the gel and thus can be easily identified. Antibacterial activity was tested as previously described (Hultmark, Eur. J. Biochem., 106:7, 1980). The gel was incubated in Mueller Hinton broth + 0.2M NaPO4 pH 7.4 for 1 hr. It was overlaid with 5 mls of the same media containing 0.6% agar and ≈ 10^5 E. coli strain DC2, and then again with 5 ml of the same media containing only 0.6% agar. […] Melittin is used as a positive control due to its antibacterial activity and similarity in size and PI values.

P. aeruginosa [4] = test: Killing assay (viable count); format: cell-based; settings: 2.5 µg/ml (0.9 µM), 20 minutes, 10^6 cells/ml

Structure (SMILES) | sensitivity of the S. typhimurium defensin sensitive strain (C590) [1] | antibiotic activity against many bacterial species ([2]; compared with CEME) | MIC values [2] | affinity for LPS (I50) (P. aeruginosa LPS) | permeabilizer for lysozyme (E. cloacae 218R1) | opening up the membrane to NPN (P. aeruginosa [3]) | permeabilizer for lysozyme (P. aeruginosa H309) | opening up the membrane to NPN (E. cloacae) | zones of clearing at the migration site (E. coli strain DC2) | reduced the viable count of P. aeruginosa (P. aeruginosa [4]) | cell lysis in the absence of lysozyme (P. aeruginosa H309; increased concentrations of peptide, P. aeruginosa data only)
CC[C@H](C)[C@H](NC(=O)CNC(=O)[C@@H](NC(=O)[C@H](CCCCN)NC(=O)[C@H](CCCCN)NC(=O)[C@H](Cc1ccccc1)NC(=O)[C@H](CC(C)C)NC(=O)[C@H](CCCCN)NC(=O)[C@H](Cc1c[nH]c2ccccc12)NC(=O)[C@@H](N)CCCCN)[C@@H](C)CC)C(=O)NCC(=O)N[C@@H](C)C(=O)N[C@H](C(=O)N[C@@H](CC(C)C)C(=O)N[C@@H](CCCCN)C(=O)N[C@H](C(=O)N[C@@H](CC(C)C)C(=O)N[C@H](C(=O)N[C@H](C(=O)NCC(=O)N[C@@H](CC(C)C)C(=O)N1CCC[C@H]1C(=O)N[C@@H](C)C(=O)N[C@@H](CC(C)C)C(=O)N[C@@H](CCCCN)C(=O)N[C@@H](CC(C)C)C(=O)N[C@H](C(=O)N[C@@H](CCCCN)C(=O)O)[C@@H](C)O)[C@@H](C)O)[C@@H](C)O)C(C)C)C(C)C [CEMA] | four-fold more sensitive | two-fold improved antibiotic activity | consistently lower than melittin | higher affinity for LPS than polymyxin B | stronger permeabilizer for lysozyme than polymyxin B | equally active | stronger permeabilizer for lysozyme than polymyxin B | equally active | – | – | –
CC[C@H](C)[C@H](NC(=O)CNC(=O)[C@@H](NC(=O)[C@H](CCCCN)NC(=O)[C@H](CCCCN)NC(=O)[C@H](Cc1ccccc1)NC(=O)[C@H](CC(C)C)NC(=O)[C@H](CCCCN)NC(=O)[C@H](Cc1c[nH]c2ccccc12)NC(=O)[C@@H](N)CCCCN)[C@@H](C)CC)C(=O)NCC(=O)N[C@@H](C)C(=O)N[C@H](C(=O)N[C@@H](CC(C)C)C(=O)N[C@@H](CCCCN)C(=O)N[C@H](C(=O)N[C@@H](CC(C)C)C(=O)N[C@H](C(=O)N[C@H](C(=O)NCC(=O)N[C@@H](CC(C)C)C(=O)N1CCC[C@H]1C(=O)N[C@@H](C)C(=O)N[C@@H](CC(C)C)C(=O)N[C@H](C(=O)N[C@@H](CO)C(=O)O)[C@@H](C)CC)[C@@H](C)O)[C@@H](C)O)C(C)C)C(C)C [CEME] | four-fold more sensitive | – | consistently lower than melittin | slightly lower affinities | albeit only at lower concentrations | less active | albeit only at lower concentrations | less active | zones of clearing | three log orders | cell lysis in the absence of lysozyme occurred
